Data on 5 molecules can be found in patent US20230110188A1 (ARGENX IIP, published 2023).

Assay [1] has as its target T1, human monomeric MuSK FLAG streptavidin (in house produced, batch 27-6-2019) (human) (UniProt O15146).
T1 sequence: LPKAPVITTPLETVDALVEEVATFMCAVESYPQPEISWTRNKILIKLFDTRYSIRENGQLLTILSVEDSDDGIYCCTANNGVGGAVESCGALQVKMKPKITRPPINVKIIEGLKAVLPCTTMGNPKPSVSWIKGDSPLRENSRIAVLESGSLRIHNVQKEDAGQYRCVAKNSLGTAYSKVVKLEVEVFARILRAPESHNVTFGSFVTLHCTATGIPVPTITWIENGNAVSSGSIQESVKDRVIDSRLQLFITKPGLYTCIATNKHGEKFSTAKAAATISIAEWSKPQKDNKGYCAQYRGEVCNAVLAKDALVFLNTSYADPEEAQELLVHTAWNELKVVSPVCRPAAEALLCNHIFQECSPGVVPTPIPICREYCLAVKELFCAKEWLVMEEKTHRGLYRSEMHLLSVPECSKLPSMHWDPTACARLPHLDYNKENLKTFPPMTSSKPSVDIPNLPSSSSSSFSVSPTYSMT
In words: ELISA, FLAG-captured human monomeric MuSK. On the technique in general: In an ELISA, binding on a coated surface is turned into a signal by an enzyme label.

In assay [2] the target is T1, human monomeric MuSK FLAG streptavidin (in house produced, batch 27-6-2019) (human). Kind of assay: ELISA, hMuSK Full ECD captured on anti-FLAG coat, antibody titrated, anti-human Fc HRP detection, OD450.

Changes are numbered by the printed parent chain. Results are given in words; binding and its absence hold for the method and conditions named. Some entries that bind do so weakly or less than the wild type. Sequences can lack the tags named with a protein.

B1: 3D10a (antibody, human IgG1, kappa, L234A L235A, V domains shown)
VH: EVQLVESGGGLVKPGGSLRLSCAASGFTFSASTMAWVRQAPGKGLEWVSSVSGDSHHIYYADSLKGRFTISRDNAKNSLYLQMNSLRAEDTAVYYCARERLLRLGVGFDSWGQGTLVTVSS
VL: DIQMTQSPSSLSASVGDRVTITCRASQRISGFVNWYQQKPGKAPKLLIYAASTLQSGVPSRFSGSGSGTDFTLTISSLQPEDFATYYCQQSYSPLYTFGQGTKLEIKR
Take B1: the binding entry in assay [1] and in assay [2] was “binds” each time.

B2: 4D3 (antibody, human IgG1, kappa, L234A L235A, V domains shown)
VH: B1 VH with A31S, S32Y, A35T, V51I, G53S, D54G, S55G, H57Y, A61T, S110F
VL: B1 VL with R28S, F32Y, V33L, P94A
For the molecule B2, the binding result in assay [1] and in assay [2] was “binds” in each case.

B3: 3D9b (antibody, human IgG1, kappa, L234A L235A, V domains shown)
VH: EVQLVESGGGLVKPGGSLRLSCAASGFTFSTYTMHWVRQAPGKGLEWVSSISSRSAYKYYADSVKGRFTISRDNAKNSLYLQMNSLRAEDTAVYYCARDFFQLGPPRFDSWGQGTLVTVSS
VL: B1 VL with G31S, V33L, A50G, T53N, L95S
Take B3: the binding entry in assay [1] and in assay [2] was “binds” throughout.

B4: 3F6c (antibody, human IgG1, kappa, L234A L235A, V domains shown)
VH: EVQLVESGGGLVKPGGSLRLSCAASGFTFSSYTMDWVRQAPGKGLEWVSSIGSNGDYIYYADSVRGRFTISRDNAKNSLYLQMNSLRAEDTAVYYCARGQLAVAGTHFDYWGQGTLVTVSS
VL: B1 VL with R28K, I29V, S30N, G31K, F32Y, Y96S
For the molecule B4, the binding entry in assay [1] and in assay [2] was “binds” in each case.

B5: 3B5 (antibody, V domains shown)
VH: QVQLVQSGAVVAKPGASVQVSCKTSGYTFTGQYLHWVRQAPGQGLEWIGWINPSSGVTKFAEKFEGRATMTRDTSITTAYIDLRSLRSDDTATYYCATLSLGVYYVGMVAWGQGTLVTVSS
VL: ELTQPPSVSVSPGQTATITCSGDGLAQQHVYWFQQRPGQAPLLIIYKDIERPSGIPERFSGSSSGTTAMLTISGVQAEDEADYYCQSGDRTATSVLFGGGTKMTVLG
notes: also called 3B5wt
As to B5, in assay [1], the binding entry is reported as “binds”.
